According to PubChem BioAssay AID248 (DTP/NCI, 2004):
The list does not hold the whole screen: it is rich in T/C values a quarter to a half above the control, in often repeated tests (any T/C) and in doses without a T/C. Further doses and runs are listed elsewhere. T/C is the treated group as % of the vehicle group. Some doses have a count of surviving animals in place of a T/C: the source holds a T/C of zero for them, seemingly a mark for toxic or unscored doses. Some doses without a T/C left all or most animals alive at the check, yet need not have been tolerated: survival well below the control is almost never listed, so the zero probably covers shortened survival too. Counts of survivors are from the toxicity check (mostly the fifth day) where no day follows; animals may have died later. Schedule codes are those of the source, taken here to give the interval after Q, in days (D) or hours (H), and the number of doses after X. Some schedules carry Z or #; the key to these is not given. Where survival is the endpoint, this PubChem deposit counts one and a half times the control or more as active, and values a quarter to a half above the control carry no call in these data; other NCI protocols may use other cut-offs. Some entries hold several experiments; the values are given in rising order. Some T/C values carry the count of animals alive at the toxicity check (mostly the fifth day); without a count, all were alive then.

System: L1210 leukemia ip in BDF1 mice, survival T/C
Experiment: NCI In Vivo Anticancer Drug Screen. Data for tumor model L1210 Leukemia (intraperitoneal) in B6D2F1 (BDF1) mice
Details: T/C endpoint: mean survival time, higher T/C = longer survival

`C=CC(CN1CC1)OC(C)=O` (stereo unspecified) was tested, and the T/C (dose: 1.0 mg/kg/injection, schedule: Q01DX010 (oral), vehicle: saline) was 125 % of control, the T/C (dose: 1.0 mg/kg/injection, schedule: Q03DX Z (ip), vehicle: saline) was 130 % of control and the survivor count (dose: 1.9 mg/kg/injection, schedule: Q01DX Z (ip), vehicle: olive oil, sesame oil, peanut oil) was 6 of 6. The T/C (dose: 1.9 mg/kg/injection, schedule: Q01DX Z (oral), vehicle: olive oil, sesame oil, peanut oil) was 139 % of control, the T/C (dose: 2.0 mg/kg/injection, schedule: Q01DX010 (oral), vehicle: saline) was 146 % of control and the T/C (dose: 2.0 mg/kg/injection, schedule: Q03DX Z (ip), vehicle: saline) was 146 % of control. The T/C (dose: 2.0 mg/kg/injection, schedule: Q#A X Z (ip), vehicle: other) was 134 % of control [5 of 6 alive], the T/C (dose: 3.0 mg/kg/injection, schedule: Q#A X Z (ip), vehicle: other) was 139 % of control and the T/C (dose: 3.6 mg/kg/injection, schedule: Q01DX Z (ip), vehicle: carboxymethylcellulose (CMC)) was 126 % of control. For the same compound, the T/C (dose: 3.75 mg/kg/injection, schedule: Q01DX009 (ip), vehicle: saline) was 145 % of control, the T/C (dose: 3.8 mg/kg/injection, schedule: Q01DX Z (oral), vehicle: olive oil, sesame oil, peanut oil) was 148 % of control and the survivor count (dose: 4.0 mg/kg/injection, schedule: Q01DX010 (oral), vehicle: saline) was 6 of 6. The T/C (dose: 4.0 mg/kg/injection, schedule: Q01DX Z (ip), vehicle: carboxymethylcellulose (CMC)) was 129 % of control, the T/C (dose: 4.0 mg/kg/injection, schedule: Q01DX Z (ip), vehicle: other) was 137 % of control and the T/C (dose: 4.0 mg/kg/injection, schedule: Q03DX Z (ip), vehicle: saline) was 126 % of control [5 of 6 alive]. For the same compound, the T/C (dose: 4.95 mg/kg/injection, schedule: Q01DX Z (ip), vehicle: carboxymethylcellulose (CMC)) was 130 and 139 % of control, the T/C (dose: 5.0 mg/kg/injection, schedule: Q01DX Z (oral), vehicle: saline) was 141 % of control and the T/C (dose: 6.0 mg/kg/injection, schedule: Q01DX Z (ip), vehicle: other) was 142 % of control. The T/C (dose: 6.0 mg/kg/injection, schedule: Q01DX Z (sc), vehicle: other) was 130 % of control, the T/C (dose: 6.6 mg/kg/injection, schedule: Q01DX Z (ip), vehicle: carboxymethylcellulose (CMC)) was 145 % of control and the T/C (dose: 7.5 mg/kg/injection, schedule: Q01DX Z (ip), vehicle: olive oil, sesame oil, peanut oil) was 147 % of control. The survivor count (dose: 7.6 mg/kg/injection, schedule: Q01DX Z (ip), vehicle: olive oil, sesame oil, peanut oil) was 6 of 6, the survivor count (dose: 8.0 mg/kg/injection, schedule: Q01DX006 (iv), vehicle: saline) was 5 of 6 and the survivor count (dose: 8.0 mg/kg/injection, schedule: Q01DX010 (oral), vehicle: saline) was 6 of 6. For the same compound, the T/C (dose: 8.0 mg/kg/injection, schedule: Q02DX004 (im), vehicle: saline) was 144 % of control, the survivor count (dose: 8.0 mg/kg/injection, schedule: Q03DX Z (ip), vehicle: saline) was 5 of 6 and the survivor count (dose: 9.0 mg/kg/injection, schedule: Q01DX Z (sc), vehicle: other) was 6 of 6. For the same compound, the T/C (dose: 9.9 mg/kg/injection, schedule: Q01DX Z (ip), vehicle: carboxymethylcellulose (CMC)) was 128, 133, 146 % of control [9 of 10 alive], the T/C (dose: 15.0 mg/kg/injection, schedule: Q01DX Z (ip), vehicle: olive oil, sesame oil, peanut oil) was 135 % of control and the T/C (dose: 15.0 mg/kg/injection, schedule: Q01DX Z (ip), vehicle: saline) was 130 % of control. The T/C (dose: 15.0 mg/kg/injection, schedule: Q01DX Z (oral), vehicle: olive oil, sesame oil, peanut oil) was 136 % of control, the T/C (dose: 15.0 mg/kg/injection, schedule: Q01DX Z (oral), vehicle: saline) was 145 % of control and the survivor count (dose: 15.1 mg/kg/injection, schedule: Q01DX Z (ip), vehicle: olive oil, sesame oil, peanut oil) was 6 of 6. The survivor count (dose: 16.0 mg/kg/injection, schedule: Q01DX006 (iv), vehicle: saline) was 6 of 6, the survivor count (dose: 16.0 mg/kg/injection, schedule: Q01DX010 (oral), vehicle: saline) was 6 of 6 and the T/C (dose: 16.0 mg/kg/injection, schedule: Q02DX004 (im), vehicle: saline) was 134 % of control. For the same compound, the T/C (dose: 16.0 mg/kg/injection, schedule: Q07DX Z (ip), vehicle: saline) was 126 and 148 % of control, the T/C (dose: 16.75 mg/kg/injection, schedule: Q01DX001 (ip), vehicle: saline) was 145 % of control and the survivor count (dose: 24.75 mg/kg/injection, schedule: Q01DX Z (ip), vehicle: carboxymethylcellulose (CMC)) was 9 of 10. For the same compound, the T/C (dose: 25.0 mg/kg/injection, schedule: Q01DX001 (ip), vehicle: saline) was 127 and 128 % of control, the survivor count (dose: 30.0 mg/kg/injection, schedule: Q01DX009 (ip), vehicle: saline) was 6 of 6 and the survivor count (dose: 30.0 mg/kg/injection, schedule: Q01DX Z (ip), vehicle: carboxymethylcellulose (CMC)) was 3 of 6. For the same compound, the survivor count (dose: 30.0 mg/kg/injection, schedule: Q01DX Z (ip), vehicle: saline) was 5 of 6, the survivor count (dose: 30.0 mg/kg/injection, schedule: Q01DX Z (oral), vehicle: olive oil, sesame oil, peanut oil) was 6 of 6 and the survivor count (dose: 30.1 mg/kg/injection, schedule: Q01DX Z (ip), vehicle: olive oil, sesame oil, peanut oil) was 0 of 6. The survivor count (dose: 30.1 mg/kg/injection, schedule: Q01DX Z (oral), vehicle: olive oil, sesame oil, peanut oil) was 1 of 6, the survivor count (dose: 30.1 mg/kg/injection, schedule: Q01DX Z (oral), vehicle: other) was 6 of 6 and the survivor count (dose: 32.0 mg/kg/injection, schedule: Q01DX010 (oral), vehicle: saline) was 0 of 6. For the same compound, the survivor count (dose: 42.0 mg/kg/injection, schedule: Q07DX Z (ip), vehicle: other) was 5 of 6, the survivor count (dose: 63.0 mg/kg/injection, schedule: Q07DX Z (ip), vehicle: other) was 5 of 6 and the survivor count (dose: 64.0 mg/kg/injection, schedule: Q02DX004 (im), vehicle: saline) was 4 of 6. For the same compound, the survivor count (dose: 64.0 mg/kg/injection, schedule: Q07DX Z (ip), vehicle: saline) was 2 of 6, the survivor count (dose: 100.0 mg/kg/injection, schedule: Q01DX001 (ip), vehicle: saline) was 4 of 6 and the survivor count (dose: 120.0 mg/kg/injection, schedule: Q01DX Z (ip), vehicle: saline) was 6 of 6. The T/C (dose: 120.0 mg/kg/injection, schedule: Q01DX Z (oral), vehicle: saline) was 130 % of control and the survivor count (dose: 200.0 mg/kg/injection, schedule: Q01DX001 (ip), vehicle: saline) was 0 of 6.
